Reference: PMC5325390
No constants are given. Whether binding was seen depends on the method and setting. For some assays here: In cells and extracts the contact can be indirect. Some entries that bind do so weakly or less than the wild type.

The chains behind the UniProt entries cited, without tags or fusion partners.
UniProt P04198: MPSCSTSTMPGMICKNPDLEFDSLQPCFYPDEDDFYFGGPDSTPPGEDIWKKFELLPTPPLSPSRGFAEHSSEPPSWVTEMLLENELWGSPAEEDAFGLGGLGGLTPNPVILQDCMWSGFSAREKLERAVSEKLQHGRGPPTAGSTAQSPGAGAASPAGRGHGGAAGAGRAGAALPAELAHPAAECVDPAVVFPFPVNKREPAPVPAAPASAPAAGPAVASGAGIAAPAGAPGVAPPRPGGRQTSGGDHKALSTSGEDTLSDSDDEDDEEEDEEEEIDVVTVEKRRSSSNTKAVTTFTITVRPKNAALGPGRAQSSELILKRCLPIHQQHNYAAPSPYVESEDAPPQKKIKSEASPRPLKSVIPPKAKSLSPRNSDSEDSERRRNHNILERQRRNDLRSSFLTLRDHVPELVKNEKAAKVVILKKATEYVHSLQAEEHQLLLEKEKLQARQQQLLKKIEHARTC
UniProt Q99873: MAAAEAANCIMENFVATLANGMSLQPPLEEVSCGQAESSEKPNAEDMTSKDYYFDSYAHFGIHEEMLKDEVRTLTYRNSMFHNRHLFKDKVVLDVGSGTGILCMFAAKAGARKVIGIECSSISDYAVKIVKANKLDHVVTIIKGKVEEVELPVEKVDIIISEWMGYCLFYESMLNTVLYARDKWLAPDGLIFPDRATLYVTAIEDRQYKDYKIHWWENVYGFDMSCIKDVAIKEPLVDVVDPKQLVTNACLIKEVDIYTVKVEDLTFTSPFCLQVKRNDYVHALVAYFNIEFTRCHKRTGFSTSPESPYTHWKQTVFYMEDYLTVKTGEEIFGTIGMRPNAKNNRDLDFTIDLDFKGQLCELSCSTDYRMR

How the values were obtained:
[1] = target: GST-MYCN fusion protein (full length) (human) (UniProt P04198); test: pull-down; GST pull-down: Flag-PRMT1 with GST or GST-MYCN as bait, immunoblotting with anti-Flag antibody; both purified
[2] = target: endogenous MYCN (human (endogenous in LAN-5)) (UniProt P04198); test: co-IP; nuclear extracts from LAN-5 cells, immunoprecipitation with anti-MYCN monoclonal antibody, immunoblotting with anti-PRMT1 antibody

Substance	binding [1]	binding [2]
Flag-tagged recombinant PRMT1 protein (from UniProt Q99873 1-371) (enzyme)	binds	–
endogenous PRMT1 (from UniProt Q99873 1-371) (enzyme)	–	binds
